Two molecules from PMC10061879 can be followed below.

By UniProt entry, the sequences of proteins in these tests, tags left out.
UniProt P06241: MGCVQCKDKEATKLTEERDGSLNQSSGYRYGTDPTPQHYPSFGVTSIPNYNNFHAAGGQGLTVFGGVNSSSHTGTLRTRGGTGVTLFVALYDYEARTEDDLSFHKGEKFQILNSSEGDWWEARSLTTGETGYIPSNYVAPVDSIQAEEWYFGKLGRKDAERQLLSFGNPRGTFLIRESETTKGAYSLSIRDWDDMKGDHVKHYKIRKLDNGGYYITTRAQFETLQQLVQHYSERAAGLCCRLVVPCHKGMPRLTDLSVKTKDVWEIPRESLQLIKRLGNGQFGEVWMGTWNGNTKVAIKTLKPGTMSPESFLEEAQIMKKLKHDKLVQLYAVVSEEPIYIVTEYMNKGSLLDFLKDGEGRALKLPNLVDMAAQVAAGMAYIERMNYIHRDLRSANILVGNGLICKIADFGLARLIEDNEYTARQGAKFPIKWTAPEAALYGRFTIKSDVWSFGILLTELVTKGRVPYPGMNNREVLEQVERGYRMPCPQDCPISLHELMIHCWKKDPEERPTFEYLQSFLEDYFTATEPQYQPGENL

No constants are given. Whether binding was seen depends on the method and setting. In cells and extracts the contact can be indirect. Some binding calls cover weakened binding; strength is not graded here. Sequences can lack the tags named with a protein.

One assay addresses T1, MAG (full-length)-FC (UniProt P20916).
T1 sequence: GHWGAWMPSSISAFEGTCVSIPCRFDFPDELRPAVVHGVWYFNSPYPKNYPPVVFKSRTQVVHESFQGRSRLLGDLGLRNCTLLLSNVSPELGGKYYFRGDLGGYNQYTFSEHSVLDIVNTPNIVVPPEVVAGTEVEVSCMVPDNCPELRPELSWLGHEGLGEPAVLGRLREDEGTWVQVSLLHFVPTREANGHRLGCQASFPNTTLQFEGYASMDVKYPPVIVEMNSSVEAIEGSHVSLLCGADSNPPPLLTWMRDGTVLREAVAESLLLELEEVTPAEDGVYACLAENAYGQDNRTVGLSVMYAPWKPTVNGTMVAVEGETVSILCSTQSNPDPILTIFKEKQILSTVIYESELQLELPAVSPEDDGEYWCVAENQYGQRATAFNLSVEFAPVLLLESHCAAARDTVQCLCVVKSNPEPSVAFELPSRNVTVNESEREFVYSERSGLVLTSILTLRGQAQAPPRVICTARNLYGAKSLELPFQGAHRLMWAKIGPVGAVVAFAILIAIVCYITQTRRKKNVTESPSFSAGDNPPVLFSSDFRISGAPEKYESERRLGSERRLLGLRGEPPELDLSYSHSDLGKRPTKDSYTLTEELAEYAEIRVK
The experiment in a line: co-IP; forward and reverse co-immunoprecipitation of proteins expressed from CMV-MAG (full-length)-FC and pLVX-FYN-strepII plasmids; cells and buffers not stated.

Another assay concerns the target FYN-strepII (UniProt P06241). The description is as above.

On to “FYN-strepII (from UniProt P06241 1-537) (enzyme)”, for which the binding entry with MAG (full-length)-FC was “binds”.

B1: MAG (full-length)-FC (Fc fusion, UniProt P20916 20-626)
chain: GHWGAWMPSSISAFEGTCVSIPCRFDFPDELRPAVVHGVWYFNSPYPKNYPPVVFKSRTQVVHESFQGRSRLLGDLGLRNCTLLLSNVSPELGGKYYFRGDLGGYNQYTFSEHSVLDIVNTPNIVVPPEVVAGTEVEVSCMVPDNCPELRPELSWLGHEGLGEPAVLGRLREDEGTWVQVSLLHFVPTREANGHRLGCQASFPNTTLQFEGYASMDVKYPPVIVEMNSSVEAIEGSHVSLLCGADSNPPPLLTWMRDGTVLREAVAESLLLELEEVTPAEDGVYACLAENAYGQDNRTVGLSVMYAPWKPTVNGTMVAVEGETVSILCSTQSNPDPILTIFKEKQILSTVIYESELQLELPAVSPEDDGEYWCVAENQYGQRATAFNLSVEFAPVLLLESHCAAARDTVQCLCVVKSNPEPSVAFELPSRNVTVNESEREFVYSERSGLVLTSILTLRGQAQAPPRVICTARNLYGAKSLELPFQGAHRLMWAKIGPVGAVVAFAILIAIVCYITQTRRKKNVTESPSFSAGDNPPVLFSSDFRISGAPEKYESERRLGSERRLLGLRGEPPELDLSYSHSDLGKRPTKDSYTLTEELAEYAEIRVK
For B1, the binding entry in the assay with FYN-strepII is “binds”.
